Results are given in words; binding and its absence hold for the method and conditions named. In cells and extracts the contact can be indirect.

Amino acid sequences for entries named in this document (tags omitted). A change or cut given only in a name is not applied to a line headed by its entry. Residues count along the entry.
UniProt Q04912, residues 25-1400: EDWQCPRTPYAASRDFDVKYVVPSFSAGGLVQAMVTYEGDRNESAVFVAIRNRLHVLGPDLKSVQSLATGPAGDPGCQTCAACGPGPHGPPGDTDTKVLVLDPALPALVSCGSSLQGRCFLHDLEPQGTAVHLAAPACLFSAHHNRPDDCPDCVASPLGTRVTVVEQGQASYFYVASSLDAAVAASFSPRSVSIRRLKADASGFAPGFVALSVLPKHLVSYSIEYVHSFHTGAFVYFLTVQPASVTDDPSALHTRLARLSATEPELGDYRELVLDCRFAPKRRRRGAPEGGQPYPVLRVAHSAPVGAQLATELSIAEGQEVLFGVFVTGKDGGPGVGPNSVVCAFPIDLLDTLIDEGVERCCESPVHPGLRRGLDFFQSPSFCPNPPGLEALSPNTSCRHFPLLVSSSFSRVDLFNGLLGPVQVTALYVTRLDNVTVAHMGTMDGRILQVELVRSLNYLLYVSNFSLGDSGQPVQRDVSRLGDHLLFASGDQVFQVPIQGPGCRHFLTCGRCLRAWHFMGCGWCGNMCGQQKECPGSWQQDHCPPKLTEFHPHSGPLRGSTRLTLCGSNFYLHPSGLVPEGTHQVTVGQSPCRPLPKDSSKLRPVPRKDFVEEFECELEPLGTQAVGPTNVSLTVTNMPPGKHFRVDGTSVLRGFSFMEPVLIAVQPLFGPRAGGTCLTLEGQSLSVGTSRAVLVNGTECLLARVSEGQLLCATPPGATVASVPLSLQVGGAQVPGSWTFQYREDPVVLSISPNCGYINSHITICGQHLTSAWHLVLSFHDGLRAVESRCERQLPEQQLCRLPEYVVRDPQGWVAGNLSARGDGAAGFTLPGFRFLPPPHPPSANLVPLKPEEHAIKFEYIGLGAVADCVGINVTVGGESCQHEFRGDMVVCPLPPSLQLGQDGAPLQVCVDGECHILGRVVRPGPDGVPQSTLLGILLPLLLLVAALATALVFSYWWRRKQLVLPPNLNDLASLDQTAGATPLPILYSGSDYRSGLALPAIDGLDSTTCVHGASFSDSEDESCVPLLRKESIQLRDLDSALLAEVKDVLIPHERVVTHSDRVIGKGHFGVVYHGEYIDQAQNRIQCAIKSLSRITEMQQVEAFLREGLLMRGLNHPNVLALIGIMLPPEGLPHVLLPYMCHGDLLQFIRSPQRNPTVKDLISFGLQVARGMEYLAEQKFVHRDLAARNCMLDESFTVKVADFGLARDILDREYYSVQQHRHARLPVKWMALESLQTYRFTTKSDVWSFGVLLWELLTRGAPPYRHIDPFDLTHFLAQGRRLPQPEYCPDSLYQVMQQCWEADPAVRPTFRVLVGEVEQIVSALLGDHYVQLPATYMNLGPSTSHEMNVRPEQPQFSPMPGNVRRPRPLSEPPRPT
UniProt P39900: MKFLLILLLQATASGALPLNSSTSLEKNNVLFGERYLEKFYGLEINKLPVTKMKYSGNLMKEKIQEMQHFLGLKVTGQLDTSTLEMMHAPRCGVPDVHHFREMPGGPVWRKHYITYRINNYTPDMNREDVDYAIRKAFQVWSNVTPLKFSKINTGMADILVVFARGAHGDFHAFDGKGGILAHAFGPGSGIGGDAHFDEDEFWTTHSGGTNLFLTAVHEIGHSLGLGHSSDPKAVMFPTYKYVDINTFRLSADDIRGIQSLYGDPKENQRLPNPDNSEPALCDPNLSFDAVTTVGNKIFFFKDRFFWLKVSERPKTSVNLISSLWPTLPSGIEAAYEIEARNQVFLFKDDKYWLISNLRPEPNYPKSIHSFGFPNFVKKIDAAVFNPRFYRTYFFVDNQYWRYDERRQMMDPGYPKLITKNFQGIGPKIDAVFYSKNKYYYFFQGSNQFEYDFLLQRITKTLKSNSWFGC

For this experiment, the target named is RON receptor tyrosine kinase (recepteur d'Origine nantais) (human) (UniProt Q04912). Description: co-IP; cells lysed in RIPA buffer with PMSF and protease inhibitor; lysate mixed with specific antibodies, then protein G Sepharose beads; isotype-matched IgG as control; Western blot; several cell lines tested.

Consider “matrix metalloproteinase-12 (MMP12) (from UniProt P39900) (enzyme)”, for which the binding entry is on record as “no binding”.

Values taken from publication PMC11574271.
